According to PubChem BioAssay AID1117319 (Southern Research Institute, 2015):
The whole screen tested about 260,000 compounds, of which about 1,500 (0.58%) were called active. This list was built around the results that the source calls inconclusive (neither active nor inactive); the mix of calls is not that of the screen.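 How the source made its calls: active means inhibition above a set limit at one or more doses, reproduced on every date tested; inconclusive means results disagree between test dates, or hit never tested in dose response; inactive means the rest.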 Residues, ends and D or L forms follow the SMILES beside them. *: point of attachment. Boc = CC(C)(C)OC(=O)*

Sequences of proteins named here, by UniProt entry; tags and fusion partners are left off. A change or cut given only in a name is not applied to a line headed by its entry.
UniProt P69720: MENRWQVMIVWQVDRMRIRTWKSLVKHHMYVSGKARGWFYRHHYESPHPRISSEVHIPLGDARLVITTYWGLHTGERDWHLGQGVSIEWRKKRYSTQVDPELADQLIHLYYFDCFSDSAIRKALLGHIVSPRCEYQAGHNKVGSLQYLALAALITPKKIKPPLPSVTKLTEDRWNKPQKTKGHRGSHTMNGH
UniProt P69721: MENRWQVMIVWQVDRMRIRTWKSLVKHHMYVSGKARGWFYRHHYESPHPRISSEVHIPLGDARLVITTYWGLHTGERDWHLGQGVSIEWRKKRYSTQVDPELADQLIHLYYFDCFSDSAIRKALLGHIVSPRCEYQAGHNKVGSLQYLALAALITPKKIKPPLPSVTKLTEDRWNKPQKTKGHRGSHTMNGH
UniProt P69722: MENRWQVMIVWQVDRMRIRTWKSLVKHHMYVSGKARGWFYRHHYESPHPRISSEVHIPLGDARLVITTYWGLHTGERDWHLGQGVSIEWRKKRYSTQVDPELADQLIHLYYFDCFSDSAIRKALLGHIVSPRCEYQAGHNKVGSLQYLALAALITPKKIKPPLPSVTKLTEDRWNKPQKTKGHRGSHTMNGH
UniProt P69723: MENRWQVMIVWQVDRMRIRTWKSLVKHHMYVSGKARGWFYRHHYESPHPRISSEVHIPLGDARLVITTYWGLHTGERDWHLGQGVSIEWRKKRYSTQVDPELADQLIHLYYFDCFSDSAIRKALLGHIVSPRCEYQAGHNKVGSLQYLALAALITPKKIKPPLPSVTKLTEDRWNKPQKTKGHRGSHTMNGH
UniProt Q9HC16: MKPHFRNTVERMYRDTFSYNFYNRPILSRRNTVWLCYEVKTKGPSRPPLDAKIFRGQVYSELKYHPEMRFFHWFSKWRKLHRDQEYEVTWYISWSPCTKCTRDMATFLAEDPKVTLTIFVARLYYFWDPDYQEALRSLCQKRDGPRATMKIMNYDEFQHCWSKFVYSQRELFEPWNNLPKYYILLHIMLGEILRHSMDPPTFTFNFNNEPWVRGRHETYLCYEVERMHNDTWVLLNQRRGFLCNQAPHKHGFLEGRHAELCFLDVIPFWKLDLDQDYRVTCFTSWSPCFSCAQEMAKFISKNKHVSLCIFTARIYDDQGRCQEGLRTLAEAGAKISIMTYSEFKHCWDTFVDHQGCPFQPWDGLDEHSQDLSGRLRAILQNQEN

Molecular target: Virion infectivity factor (Human immunodeficiency virus type 1 group M subtype B (isolate BH10)) + Virion infectivity factor (Human immunodeficiency virus type 1 group M subtype B (isolate BRU/LAI)) + Virion infectivity factor (Human immunodeficiency virus type 1 group M subtype B (isolate PCV12)) + Virion infectivity factor (Human immunodeficiency virus type 1 group M subtype B (isolate HXB2)) + DNA dC->dU-editing enzyme APOBEC-3G (Homo sapiens) (UniProt P69720+P69721+P69722+P69723+Q9HC16)
Assay: inhibitors of Vif binding to APOBEC3G peptide, primary screen, biochemical, TR-FRET, GST-Vif 1-94, biotin-A3G peptide, dose response retest (AID 1117319);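 further: Vif residues 1-94 fused to GST binding biotinylated APOBEC3G peptide 110-148; 0% = full assay without inhibitor and 100% = GST in place of GST-Vif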
Details: stronger effect = higher value

Row | Compound | inhibition
1 | C/C(=N\NC(=O)c1ccc(Br)cc1)C1C(=O)c2ccccc2C1=O | inconclusive: 43.6%
2 | CSc1nsc(SC)c1C(=O)O | inconclusive: 33.6%
3 | Cc1ccccc1NC(=O)C(C#N)Cc1cccnc1 (centres undefined) | inconclusive: 46.4%
4 | CCn1c(COc2ccc(Cl)cc2)nnc1SCC(=O)Nc1ccc2c(c1)OCO2 | inconclusive: 49.5%
5 | COc1ccc(NC(=O)CN(C)C(=O)c2sc3ccccc3c2Cl)cc1 | inactive: 1.23%
6 | Nc1cccnc1Sc1cc(Cl)cc(Cl)c1 | inconclusive: 52.2%
7 | CC(C)NC(=O)N(Cc1ccccc1)Cc1cccs1 | inactive: -1.49%
8 | COc1cc(C)cc(OC)c1OCC(=O)Nc1cc(C)on1 | inconclusive: 40.4%
9 | COc1ccc(C(CC(=O)N2CCN(c3ccccc3)CC2)c2c(OC)cc(OC)c3c(-c4ccccc4)cc(=O)oc23)cc1 (centres undefined) | inconclusive: 53.1%
10 | Cc1nnc2n(C3CCCCC3)c(=O)c3c4c(sc3n12)CCC4 | inconclusive: 42.3%
11 | Cc1cc(C(F)(F)F)c2c(N)c(C(=O)Nc3cc(C)on3)sc2n1 | inconclusive: 47.5%
12 | O=C(Oc1ccc(N(C(=O)c2ccncc2)S(=O)(=O)c2ccc(Cl)cc2)cc1)c1ccncc1 | inconclusive: 48%
13 | CNC(=O)c1c(N)sc2c1CCCCC2 | inconclusive: 54.9%
14 | O=C(NC1CCCCC1)C1CN(S(=O)(=O)c2ccccc2)CCN1S(=O)(=O)c1ccccc1 (centres undefined) | inconclusive: 40.3%
15 | NC(=O)N/N=C\c1cc(Br)ccc1O | inconclusive: 39.7%
16 | OC1=C(O)c2nc3cc(F)ccc3nc21 | inconclusive: 43%
17 | Cc1ccc(SCCNC(=O)c2ccc(C)c(S(=O)(=O)Nc3cccc(C)c3)c2)cc1 | inconclusive: 38.6%
18 | CCCCc1ccc(-c2csc(/C(C#N)=C/c3ccco3)n2)cc1 | inconclusive: 53.4%
19 | Cc1cc(Nc2cccc(C)c2C)n2nc(C)nc2n1 | inconclusive: 34.9%
20 | CC12CCC(C(=O)NCc3ccco3)(OC1=O)C2(C)C (centres undefined) | inconclusive: 21.6%
21 | COc1ccccc1Nc1ncnc2c1cnn2-c1cccc(C)c1 | inconclusive: 35%
22 | Cc1ccccc1NC(=O)c1ccccc1NC(=O)CCC(=O)O | inconclusive: 39.3%
23 | C=CCC(C#Cc1ccccc1)[N+](C)(C)CC=C (centres undefined) | inconclusive: 49.6%

Another view of 3 compounds above.

| Row | Compound | inhibition |
| --- | --- | --- |
| 2 | CSc1nsc(SC)c1C(=O)O | inconclusive: 33.6% |
| 7 | CC(C)NC(=O)N(Cc1ccccc1)Cc1cccs1 | inactive: -1.49% |
| 23 | C=CCC(C#Cc1ccccc1)[N+](C)(C)CC=C (centres undefined) | inconclusive: 49.6% |

Quoted at random: three entries already listed, in no set order.
Row | Compound | inhibition
1 | C/C(=N\NC(=O)c1ccc(Br)cc1)C1C(=O)c2ccccc2C1=O | inconclusive: 43.6%
12 | O=C(Oc1ccc(N(C(=O)c2ccncc2)S(=O)(=O)c2ccc(Cl)cc2)cc1)c1ccncc1 | inconclusive: 48%
10 | Cc1nnc2n(C3CCCCC3)c(=O)c3c4c(sc3n12)CCC4 | inconclusive: 42.3%

(further entries)

Row | Compound | inhibition
24 | [O-][n+]1onc2c1CCC1N(O)C(c3ccccc3)CC21O (centres undefined) | inconclusive: 35.8%
25 | CCCCC1=CC2=C(c3ccco3)C(=O)C(C)(OC(=O)c3ccc(OC)cc3)C(=O)C2=CN1Cc1ccccc1 (centres undefined) | inconclusive: 51.9%
26 | O=C(Nc1ccc(F)cc1)N(CCCN1CCOCC1)Cc1cc2cc3c(cc2[nH]c1=O)OCCO3 | inconclusive: 42.8%
27 | O=C(NCC1CCCO1)c1ccc(CS(=O)(=O)c2ccc(Cl)cc2)o1 (centres undefined) | inactive: 0.48%
28 | CCSc1nc(-c2ccccc2)c(-c2ccccc2)n1CC(O)CO (centres undefined) | inactive: -5.14%
29 | Clc1ccc(-c2nc3cnccn3c2Nc2ccc3c(c2)OCO3)cc1 | inconclusive: 82.6%
30 | Cc1nn(C)cc1/C=C1\SC(=S)NC1=O | inactive: -1.22%
31 | COc1ccc(C(=O)NC(=S)NNC(=O)COc2ccccc2)cc1 | inconclusive: 53.6%
32 | Cc1ccnc(NC(=O)COC(=O)c2ccc(F)cc2F)n1 | inconclusive: 49.8%
33 | CCC(C)N(NC(C)=O)c1nc(Cl)nc(NC(C)(C)C)n1 (centres undefined) | inactive: 7.21%
34 | COc1cc(NS(=O)(=O)c2ccc(NC(=S)NC(=O)/C=C/c3ccco3)cc2)ncn1 | inconclusive: 42.2%
35 | O=C(C1CCN(S(=O)(=O)c2cccc3cccnc23)CC1)N1CCN(c2ccccc2)CC1 | inactive: 3.12%
36 | COc1ccc(NC(=O)c2cccc(NC(=O)c3ccco3)c2)c(OC)c1 | inconclusive: 40.2%
37 | FC(F)(F)c1ccc(N=Cc2sc(N3CCOCC3)nc2-c2ccccc2)cc1 | inactive: 12.3%
38 | O=C(COC(=O)c1cccs1)Nc1ccccc1C(F)(F)F | inconclusive: 54.2%
39 | O=C(O)c1cc(-c2ccccn2)n[nH]1 | inactive: -8.59%
40 | O=C(CSc1nnnn1-c1ccccc1)Nc1ncc2c(n1)CC(c1ccccc1)CC2=O (centres undefined) | inactive: 2.52%
41 | O=C(CCCNS(=O)(=O)c1ccccc1)NCc1ccco1 | inconclusive: 33.1%
42 | O=c1c2c3c(sc2[nH]c(=S)n1Cc1ccco1)CCC3 | inconclusive: 55.5%
43 | COc1ccccc1/C=N/NC(=O)CNC(=O)c1ccc(S(=O)(=O)N(C)C)cc1 | inconclusive: 34.6%
44 | CC(=O)Nc1ccc(S(=O)(=O)N(CC(=O)O)Cc2ccccc2)cc1 | inconclusive: 47.7%
45 | CC(=O)Nc1ccc(S(=O)(=O)NCc2ccc(C)cc2)cc1 | inconclusive: 55.5%
46 | COc1ccc(-c2ccc(Nc3ccc(S(=O)(=O)N4CCCC4)cc3)nn2)cc1OC | inconclusive: 46.4%

Row | Compound | inhibition
47 | O=C(CCNC(=O)C1CCN(S(=O)(=O)c2ccc(F)cc2)CC1)NCc1ccc(Cl)cc1 | inconclusive: 36.2%
48 | Oc1nc(Nc2ccc(F)cc2)sc1/C=C1\C=Nc2ccccc21 | inconclusive: 52.5%
49 | COc1ccc(N2C(=O)CC(Sc3nc4c(cc3C#N)CCC4)C2=O)cc1 (centres undefined) | inconclusive: 60.1%
50 | O=C(O)c1ccc(NS(=O)(=O)c2cc(Cl)ccc2Cl)cc1O | inactive: 3.01%
51 | Cc1cc(C)nc(/N=C(\N)Nc2ccc(-c3ccccc3)cc2)n1 | inconclusive: 41.4%
52 | CCOC(=O)c1c(C)n(-c2ccc(C)cc2)c2c(C(C(C)=O)C(=O)O)c(Br)c(O)c(O)c12 (centres undefined) | inconclusive: 44.7%
53 | Cc1ccc(OCCSc2nc(NC(C)C)nc(NC(C)C)n2)cc1 | inactive: -8.83%
54 | O=C(O)/C=C/C(=O)N1CCN(c2cccc(Cl)c2)CC1 | inconclusive: 51.5%
55 | Cc1ccc(S(=O)(=O)/N=C2/C=C(C3C(=O)CC(C)(C)CC3=O)C(=O)c3ccccc32)cc1 | inconclusive: 44.6%
56 | Cc1cc(C)nc(Sc2c(F)c(F)c(C(F)(F)F)c(F)c2F)n1 | inconclusive: 49.1%
57 | NC(=O)C1CCN(c2c([N+](=O)[O-])cc(C(F)(F)F)cc2[N+](=O)[O-])CC1 | inconclusive: 56.5%
58 | Cc1ccc(/C=N/c2sc3c(c2C#N)CCCCC3)o1 | inconclusive: 36%
59 | Cc1cc2c(N=O)c(NO)ccc2[nH]1 | inconclusive: 48.6%
60 | COc1cccc2cc(C(=O)Oc3ccc(NC(C)=O)cc3)c(=O)oc12 | inconclusive: 34.1%
61 | CC(=O)NC(C)C12CC3CC(CC(C(=O)O)(C3)C1)C2 (centres undefined) | inconclusive: 43.8%
62 | CCN(CC)S(=O)(=O)c1cccc2cc(C(=O)O)c(O)cc12 | inactive: -3.16%
63 | COc1cccc(C(=O)N=c2sc3c(C)ccc(OC)c3n2C)c1 | inconclusive: 33.6%
64 | CCSc1nc2c(cnn2-c2ccc(C)c(C)c2)c(=O)[nH]1 | inconclusive: 34%
65 | Cc1ccc(NC(=O)CSCC(=O)Nc2ncc3c(n2)CC(c2ccco2)CC3=O)cc1 (centres undefined) | inconclusive: 52.5%
66 | N#CC1=C(N)N(c2ccccc2)C2=C(C(=O)CCC2)C1c1ccsc1 (centres undefined) | inconclusive: 37.1%
67 | O=[N+]([O-])c1ccc2nc(C3CCCCC3)[nH]c2c1 | inactive: -11.7%
68 | O=C1S/C(=C\c2ccc(N3CCOCC3)o2)C(=O)N1c1ccccc1 | inconclusive: 50.9%
69 | CCCCc1nnc2c(N(C)S(=O)(=O)c3ccccc3)nc3ccccc3n12 | inconclusive: 42.7%

Reformatted in CSV form: entries from further up
Row,Compound,inhibition
67,O=[N+]([O-])c1ccc2nc(C3CCCCC3)[nH]c2c1,inactive: -11.7%
68,O=C1S/C(=C\c2ccc(N3CCOCC3)o2)C(=O)N1c1ccccc1,inconclusive: 50.9%

Later entries

Row | Compound | inhibition
70 | O=C(O)c1ccc(CSc2nnc(COc3ccccc3)o2)cc1 | inactive: -5.6%
71 | Cc1[nH]nc2c1C(CC(C)C)C(C#N)=C(N)O2 (centres undefined) | inconclusive: 39.8%
72 | CCOc1ccccc1NC(=O)CSc1nnc(-c2cnccn2)n1CC | inconclusive: 33.6%
73 | COc1ccc(-n2cc(-c3ccc(Cl)cc3)[nH]c2=S)cc1 | inactive: -54.3%
74 | CC1=C(C(=O)OC(C)C)C(c2cccs2)C(C(=O)OC(C)C)=C(C)N1 | inactive: -3.55%
75 | O=C(CCSc1ccccc1)N1CCN(c2ccccc2)CC1 | inactive: -3.65%
76 | O=C1C=C(Nc2ccccc2O)c2ccccc2C1=O | inactive: 29.9%
77 | COC(=O)C(CC(C)C)NC(=O)C(Cc1ccccc1)NC(=O)C1CCCN1C(=O)OC(C)(C)C (stereo not drawn) (Boc-Pro-Phe-Leu-OMe; configuration not given here) | inconclusive: 34.1%
78 | O=C(COC(=O)CN1C(=O)NC2(CCCC2)C1=O)NCc1ccc(Cl)cc1Cl | inconclusive: 33.7%
79 | CCOC(=O)C1=C(O)/C(=C\c2cc(C)n(-c3ccc(F)cc3)c2C)N=C1C | inconclusive: 54.8%
80 | COc1cc(/C=N/N=C(\N)c2nonc2N)cc(OC)c1O | inactive: 16.4%
81 | Cc1nc2ccccc2c(=O)n1NC(=O)Cc1ccc(Br)cc1 | inconclusive: 37.6%
82 | CC(=O)N1CCN(c2ccc(NCc3ccc(F)cc3)cc2)CC1 | inconclusive: 76.4%
83 | CCN1C(=O)CC(N2CCC(Nc3ccc(F)cc3)CC2)C1=O (centres undefined) | inconclusive: 33.4%
84 | N#Cc1ccc(-c2cccnc2)nc1SCc1ccc(Cl)cc1Cl | inconclusive: 59.3%
85 | O=C1c2ccncc2C(=O)N1C1CCCCC1 | inconclusive: 34.7%
86 | O=[N+]([O-])c1cc(/C=N/NC(=S)Nc2ccccc2Cl)ccc1Cl | inactive: 8.67%
87 | Cc1cccc(NC(=O)C2C3CCC4C(CCC32)C4(Cl)Cl)c1 (centres undefined) | inconclusive: 48%
88 | CCN(CC(=O)Nc1cc(Cl)ccc1C)C(=O)c1ccc2c(=O)n3c(nc2c1)CCC3 | inactive: 2.7%
89 | O=[N+]([O-])c1ccc(/C=N/NC(=S)Nc2ccc(Cl)cc2Cl)s1 | inconclusive: 41.4%
